In all, about 33,000 sequences were measured (“E-score (-0.5 to 0.5)”: median about -8e-05, highest 2% from about 0.23 on). The list shows a part of the results.
Target: T1, Nrg2 (UniProt P38082)
T1 sequence: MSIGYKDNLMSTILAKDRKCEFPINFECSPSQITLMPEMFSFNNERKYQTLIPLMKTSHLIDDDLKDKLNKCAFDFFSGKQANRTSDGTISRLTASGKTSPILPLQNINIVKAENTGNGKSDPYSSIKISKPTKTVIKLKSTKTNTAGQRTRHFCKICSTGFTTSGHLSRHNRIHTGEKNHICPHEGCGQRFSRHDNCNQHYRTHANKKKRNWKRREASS
Assay: PBM E-score (8-mer binding enrichment) (E-score (-0.5 to 0.5)); higher = stronger / more preferred TF binding
Conditions: protein concentration: 100 nM; construct: GST-full length
In short: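 The E-score, a modified Wilcoxon-Mann-Whitney statistic, was computed by the Universal PBM Analysis Suite for every ungapped eight-base word pooled with its reverse complement. Scans behind it were normalised with masliner after bound GST-tagged yeast transcription factors were detected with fluorescent anti-GST. The proteins, at about 100-200 nM, had been applied to universal all-10-mer Agilent arrays made double-stranded by primer extension.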

| Sequence | PBM E-score |
| --- | --- |
| AGTTCAAC | 0.103 |
| CATTAGGC | -0.102 |
| CTCCAACA | 0.0834 |
| CATACGAC | 0.0269 |
| ATACTCAA | 0.136 |
| CATGCCGA | 0.158 |
| AGCGCTAA | 0.0958 |
| CTCTATAC | -0.0911 |
| ACCGTTTA | -0.129 |
| ATTAGTGG | 0.15 |
| AAGTTAAG | -0.0112 |
| TAATACGA | 0.00217 |
| TCTAGAAA | -0.0493 |
| AGACCTAA | -0.109 |
| CAATCCCC | -0.00856 |
| GATATGAC | 0.132 |
| AAATACAG | 0.0793 |
| GGACTCCC | -0.169 |
| AATGTGGT | -0.0285 |
| AATAACCC | 0.189 |
| TAACAAGA | -0.00432 |
| CGGACTCA | 0.0398 |
| AATTCGCT | 0.318 |
| ATGCAGTG | 0.0198 |
| AGCGTGAG | 0.0143 |

| Sequence | PBM E-score |
| --- | --- |
| AGGGCTTA | -0.186 |
| ACCTTCCA | -0.0336 |
| ACGACCTA | 0.0156 |
| AGGGGCTA | 0.0283 |
| CGTCACTC | -0.18 |
| TCACGCAA | 0.0813 |
| CGTGCCAA | -0.033 |
| GGCGGCAC | 0.0328 |
| CCCTGTTA | 0.169 |
| GAGCTGTA | -0.149 |
| AGTGGTGG | -0.0924 |
| AAATAAAT | 0.142 |
| CATGTGCG | 0.0824 |
| TATAGATA | -0.0841 |
| CTGGGTCA | -0.13 |
| ACCTATAC | -0.044 |
| ATTGTAAA | -0.0203 |
| ATTCAACG | 0.163 |
| ATGGACTC | -0.0223 |
| GGGGCAAC | -0.0671 |
| AGTTTTCG | 0.147 |
| GGCCTGCA | -0.134 |
| ATACTTAG | 0.0678 |
| CCCTCATA | -0.0373 |
| TACCACCA | -0.0876 |

Shown with each value named: part of the list above
CGTCACTC
  PBM E-score: -0.18
TCACGCAA
  PBM E-score: 0.0813
ATGGACTC
  PBM E-score: -0.0223

Further records follow:

| Sequence | PBM E-score |
| --- | --- |
| ATTTCTGA | -0.0112 |
| GCATGGGC | -0.153 |
| CTAAACGC | -0.0415 |
| AAGCCCCC | -0.31 |
| ACCGTAAC | -0.269 |
| AGACTAAC | -0.0882 |
| CGGGTCTC | -0.0571 |
| GGGAGTTA | 0.0101 |
| CGGACCAA | 0.0777 |
| AACCAGAT | 0.0767 |
| GTTTCTGA | 0.178 |
| ATAGAATG | 0.0622 |
| CGCGAGCA | 0.0427 |
| CCCTAAAC | -0.122 |
| TGCTCGAA | 0.0926 |
| CCACGCTC | -0.206 |
| ACAATGAG | -0.131 |
| CTTCACAA | -0.111 |
| ACGGTGAC | -0.213 |
| ATCGACAC | -0.0125 |
| GCGAAGTA | 0.157 |
| CACGGTGG | -0.0259 |
| ACCGGGGC | -0.0455 |
| AAGCGGAC | -0.0305 |
| CGAGAAAC | 0.0922 |

| Sequence | PBM E-score |
| --- | --- |
| GACCGCGC | 0.0601 |
| ATCGGGAG | -0.176 |
| ATTCGCTG | 0.0561 |
| AACCGCTT | -0.102 |
| AGGGCCCG | 0.0729 |
| TACCATGA | -0.0364 |
| ACAGACAT | 0.0117 |
| ACGTTTGC | 0.0465 |
| GTCTTTCA | -0.177 |
| ACCAATCA | 0.0386 |
| ACACTTTA | 0.0666 |
| CAATTAGC | 0.0178 |
| CCGTCATA | -0.0182 |
| CTGATAAG | 0.144 |
| ACTAACTC | -0.161 |
| ACGTCGAT | 0.062 |
| CCACGCCC | -0.275 |
| CCCCCACA | -0.377 |
| ATTCTCCA | 0.0311 |
| AGACGGGA | -0.078 |
| ACTTGTCT | -0.0659 |
| CTGCCGAC | 0.11 |
| CAACCTGG | 0.0094 |
| CCCCGGAA | -0.0849 |
| AAATCAGA | 0.129 |

| Sequence | PBM E-score |
| --- | --- |
| ACATAAAA | 0.0331 |
| CCTACCCC | -0.0956 |
| ATCTTTCG | 0.0875 |
| AACAGTGG | 0.134 |
| GATAGTAC | 0.0894 |
| GAGGTTTA | -0.00946 |
| GTAATAAC | 0.0923 |
| AGAGGTGC | -0.259 |
| CTAGATGA | -0.0603 |
| CAGGCACA | -0.0982 |
| GTGCTGGA | -0.148 |
| ATGCCGGC | -0.0209 |
| GCGACCGC | -0.0925 |
| ACGCTAAC | -0.0216 |
| GCAAGATA | 0.229 |
| CCTGTGGA | -0.0981 |
| ACCCCGCG | 0.0364 |
| GTAGCAGA | 0.0929 |
| CCCCCAAC | -0.342 |
| TAGAACCA | -0.0179 |
| AAGGAAGC | -0.16 |
| GACGCCAC | -0.188 |
| ATCGGACC | 0.136 |
| ATTTAGAG | 0.0824 |
| AAGCGTTA | -0.0203 |

| Sequence | PBM E-score |
| --- | --- |
| CAATTTGC | -0.0607 |
| GCCCTTCC | -0.188 |
| AGTGAGTC | -0.00332 |
| ACCTCAGT | 0.0369 |
| AGCAGTGA | 0.234 |
| AGGGTCGA | 0.262 |
| CCTCAAAG | -0.153 |
| ATGGTGGA | -0.0629 |
| CCGTTTAG | -0.126 |
| AACTGTCT | 0.0381 |
| ATATGCAG | -0.236 |
| GCTGGTCA | -0.121 |
| GACGACCA | 0.00397 |
| AATCAGCA | 0.0692 |
| ACAACATA | 0.268 |
| AGGAAACA | 0.0307 |
| ACCAACGC | -0.09 |
| AGGATAAA | 0.106 |
| AATTCGCG | 0.202 |
| ATTGTTAG | 0.174 |
| GTATTCTA | 0.0921 |
| CTGATGGC | -0.0852 |
| TAGCTCGA | 0.17 |
| AATTTGTA | 0.173 |
| CCTTCTGC | -0.0658 |

Five entries from above, with tabs.
Sequence	PBM E-score
AGCAGTGA	0.234
AGGGTCGA	0.262
CCTCAAAG	-0.153
ATGGTGGA	-0.0629
CCGTTTAG	-0.126

(further entries)

| Sequence | PBM E-score |
| --- | --- |
| ACCTGCGA | -0.0464 |
| AACTAACT | 0.0521 |
| ATAGTTCC | 0.118 |
| CCGGCCTC | -0.215 |
| CATCTCGA | 0.0545 |
| GCCGGTAA | 0.0975 |
| TCAAAAGA | 0.0913 |
| CAAATTCG | 0.186 |
| GCAGAACC | -0.0284 |
| CCATCACG | -0.0736 |
| AGACTTGG | -0.191 |
| ACACGACC | 0.00695 |
| GTAGTGCA | 0.138 |
| CTGTCAAC | 0.122 |
| GAACTGTA | 0.0377 |
| CTGCTCAC | -0.063 |
| CAAATAGG | -0.0634 |
| GGCATCAA | -0.153 |
| CAGTTTAG | -0.0391 |
| CGGGATGA | -0.0542 |
| CAAACCTC | -0.04 |
| CGTCCTGA | -0.00684 |
| CCCTCGTC | -0.033 |
| CTCAAAAC | 0.0822 |
| GAATCTTA | 0.171 |

| Sequence | PBM E-score |
| --- | --- |
| ATAAGTGC | -0.0559 |
| CAAAACCA | 0.249 |
| GTCTCAAA | -0.12 |
| AAAACCTG | -0.073 |
| GATTCACA | -0.00093 |
| GTAGGGAA | 0.0208 |
| GTGGCTGA | -0.033 |
| ACAGCTTC | -0.102 |
| GTCTTACA | -0.142 |
| CAAACACC | -0.0668 |
| ATTCCGGC | -0.0149 |
| CAATCTGC | 0.00635 |
| GATGAGTA | 0.136 |
| CAGCGTCC | -0.133 |
| CTCTAAGA | -0.0998 |
| GACTCAAA | -0.107 |
| CCTGCCCC | -0.17 |
| CCACTTAG | -0.0844 |
| AACGCTCA | -0.127 |
| CTATTATC | 0.102 |
| AATGATCA | 0.13 |
| GCATTCGC | -0.2 |
| TGAGTCAA | 0.0756 |
| AGCCAGCA | -0.0709 |
| CTCGTGTC | -0.0953 |

| Sequence | PBM E-score |
| --- | --- |
| CTACTTTA | 0.0465 |
| AACGGTAC | 0.15 |
| AATTATGC | 0.074 |
| GCCTCAGC | -0.146 |
| CCGCCCGG | -0.003 |
| GAGCAGTA | 0.136 |
| CATCTATA | 0.0737 |
| ATTAAGCC | -0.0328 |
| CTCTGAAA | -0.0416 |
| AGCGACCA | -0.0183 |
| ACTAGGAA | -0.094 |
| ATCTCCCG | -0.0239 |
| CGTTAGTC | -0.0998 |
| AATTAGGT | 0.032 |
| CGGACGTA | -0.0723 |
| GCAAATGC | 0.0341 |
| ATCGAATC | 0.09 |
| CCGCCGAC | 0.0053 |
| ATAGCTAA | 0.0739 |
